Assay results: the supplement of paper PMC12819154, “High-throughput peptide-centric local stability assay extends protein–ligand identification to membrane proteins, tissues and bacteria” (Nature Structural & Molecular Biology, 2025)
The list shows a part of the results. Most values lie at the level of the controls, where differences are scatter.

The chains behind the UniProt entries cited, without tags or fusion partners. Where a name states a change or a piece, a line headed by the entry shows the natural chain unless it says otherwise.
UniProt Q9JJN2: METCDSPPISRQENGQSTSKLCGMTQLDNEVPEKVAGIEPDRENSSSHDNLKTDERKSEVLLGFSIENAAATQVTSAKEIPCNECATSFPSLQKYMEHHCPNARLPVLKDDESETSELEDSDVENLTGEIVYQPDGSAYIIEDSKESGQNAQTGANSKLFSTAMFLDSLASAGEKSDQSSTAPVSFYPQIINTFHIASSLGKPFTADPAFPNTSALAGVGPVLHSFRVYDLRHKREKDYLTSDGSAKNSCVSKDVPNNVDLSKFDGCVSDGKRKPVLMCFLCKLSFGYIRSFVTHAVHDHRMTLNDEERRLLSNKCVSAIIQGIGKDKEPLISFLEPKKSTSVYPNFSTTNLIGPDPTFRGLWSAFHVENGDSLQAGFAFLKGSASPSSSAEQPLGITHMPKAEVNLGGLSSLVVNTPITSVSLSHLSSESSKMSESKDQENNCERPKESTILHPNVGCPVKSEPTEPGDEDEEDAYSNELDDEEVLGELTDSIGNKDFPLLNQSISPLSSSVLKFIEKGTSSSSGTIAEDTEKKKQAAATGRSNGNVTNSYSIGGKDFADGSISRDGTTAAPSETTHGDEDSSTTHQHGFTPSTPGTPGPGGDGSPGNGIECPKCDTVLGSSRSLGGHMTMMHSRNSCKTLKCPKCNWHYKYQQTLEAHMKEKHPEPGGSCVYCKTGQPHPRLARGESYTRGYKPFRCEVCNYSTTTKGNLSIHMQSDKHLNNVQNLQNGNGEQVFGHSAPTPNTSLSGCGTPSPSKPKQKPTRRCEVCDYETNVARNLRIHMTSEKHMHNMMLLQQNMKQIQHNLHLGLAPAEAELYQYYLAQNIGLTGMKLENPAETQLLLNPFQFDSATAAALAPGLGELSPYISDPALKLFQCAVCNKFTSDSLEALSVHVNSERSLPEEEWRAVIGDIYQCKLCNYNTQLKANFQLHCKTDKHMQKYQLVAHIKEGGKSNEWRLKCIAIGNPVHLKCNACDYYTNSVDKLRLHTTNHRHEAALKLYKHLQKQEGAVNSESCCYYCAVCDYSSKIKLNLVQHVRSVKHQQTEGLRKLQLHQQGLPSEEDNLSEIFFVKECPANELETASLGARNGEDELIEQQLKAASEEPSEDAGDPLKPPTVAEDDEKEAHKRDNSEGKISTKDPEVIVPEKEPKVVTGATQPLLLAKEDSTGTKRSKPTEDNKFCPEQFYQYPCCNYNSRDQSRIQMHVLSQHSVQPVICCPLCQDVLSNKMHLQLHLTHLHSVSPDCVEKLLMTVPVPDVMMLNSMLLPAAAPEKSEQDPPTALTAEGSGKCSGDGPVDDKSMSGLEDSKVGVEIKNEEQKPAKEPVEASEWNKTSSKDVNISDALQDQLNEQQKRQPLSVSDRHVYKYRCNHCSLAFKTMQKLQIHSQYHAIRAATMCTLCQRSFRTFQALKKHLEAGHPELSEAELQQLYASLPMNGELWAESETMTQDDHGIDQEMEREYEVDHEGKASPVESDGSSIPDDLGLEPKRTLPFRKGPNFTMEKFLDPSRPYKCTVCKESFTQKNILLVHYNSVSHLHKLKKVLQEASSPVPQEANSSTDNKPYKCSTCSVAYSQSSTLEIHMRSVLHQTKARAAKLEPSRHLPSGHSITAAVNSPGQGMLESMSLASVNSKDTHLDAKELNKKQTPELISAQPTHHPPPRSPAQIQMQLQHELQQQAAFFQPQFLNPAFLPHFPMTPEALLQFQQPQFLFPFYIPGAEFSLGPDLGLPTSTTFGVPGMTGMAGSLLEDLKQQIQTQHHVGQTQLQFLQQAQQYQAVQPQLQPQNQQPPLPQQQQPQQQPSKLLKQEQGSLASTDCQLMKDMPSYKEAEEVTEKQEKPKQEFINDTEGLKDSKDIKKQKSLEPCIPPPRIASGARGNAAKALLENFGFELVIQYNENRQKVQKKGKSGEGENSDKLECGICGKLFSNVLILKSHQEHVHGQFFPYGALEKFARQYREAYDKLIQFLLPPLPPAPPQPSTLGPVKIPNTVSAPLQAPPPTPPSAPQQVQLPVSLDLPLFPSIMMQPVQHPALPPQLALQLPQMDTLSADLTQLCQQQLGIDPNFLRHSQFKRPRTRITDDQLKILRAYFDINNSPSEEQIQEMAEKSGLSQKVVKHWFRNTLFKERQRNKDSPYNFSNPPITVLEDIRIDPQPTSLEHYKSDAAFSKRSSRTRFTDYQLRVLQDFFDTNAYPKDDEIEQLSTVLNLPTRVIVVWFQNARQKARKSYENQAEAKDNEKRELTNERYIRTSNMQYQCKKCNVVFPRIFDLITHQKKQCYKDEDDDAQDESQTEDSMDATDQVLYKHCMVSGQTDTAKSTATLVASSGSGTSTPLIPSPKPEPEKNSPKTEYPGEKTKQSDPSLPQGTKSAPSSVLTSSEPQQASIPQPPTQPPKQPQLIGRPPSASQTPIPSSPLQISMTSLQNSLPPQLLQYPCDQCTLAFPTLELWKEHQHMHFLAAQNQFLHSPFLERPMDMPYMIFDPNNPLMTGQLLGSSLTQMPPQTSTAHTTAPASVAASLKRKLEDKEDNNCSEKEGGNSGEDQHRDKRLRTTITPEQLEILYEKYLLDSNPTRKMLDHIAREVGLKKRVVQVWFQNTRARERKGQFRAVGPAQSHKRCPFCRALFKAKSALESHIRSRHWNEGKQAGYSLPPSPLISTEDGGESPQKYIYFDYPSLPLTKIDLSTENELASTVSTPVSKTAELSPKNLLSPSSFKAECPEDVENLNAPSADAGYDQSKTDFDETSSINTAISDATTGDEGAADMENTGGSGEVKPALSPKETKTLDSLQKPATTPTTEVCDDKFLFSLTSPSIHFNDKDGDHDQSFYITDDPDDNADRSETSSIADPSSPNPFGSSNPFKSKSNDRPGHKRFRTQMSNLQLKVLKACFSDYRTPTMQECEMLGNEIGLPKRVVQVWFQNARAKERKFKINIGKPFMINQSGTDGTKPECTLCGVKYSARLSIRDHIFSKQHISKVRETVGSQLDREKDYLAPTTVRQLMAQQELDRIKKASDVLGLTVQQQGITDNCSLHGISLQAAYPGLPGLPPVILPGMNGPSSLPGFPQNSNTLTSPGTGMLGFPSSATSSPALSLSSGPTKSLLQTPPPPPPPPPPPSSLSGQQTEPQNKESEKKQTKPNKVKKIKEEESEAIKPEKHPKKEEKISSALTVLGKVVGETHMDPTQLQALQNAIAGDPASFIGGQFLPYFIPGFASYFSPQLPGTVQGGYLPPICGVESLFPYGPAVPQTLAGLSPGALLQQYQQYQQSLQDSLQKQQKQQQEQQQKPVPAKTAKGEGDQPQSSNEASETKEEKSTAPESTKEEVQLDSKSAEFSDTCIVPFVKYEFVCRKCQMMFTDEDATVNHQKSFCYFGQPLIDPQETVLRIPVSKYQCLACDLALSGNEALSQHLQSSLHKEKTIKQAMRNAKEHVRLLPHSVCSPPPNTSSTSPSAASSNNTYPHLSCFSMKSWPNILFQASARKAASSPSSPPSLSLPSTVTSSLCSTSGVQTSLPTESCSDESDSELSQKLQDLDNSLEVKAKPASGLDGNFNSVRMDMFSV
UniProt Q9JJ78: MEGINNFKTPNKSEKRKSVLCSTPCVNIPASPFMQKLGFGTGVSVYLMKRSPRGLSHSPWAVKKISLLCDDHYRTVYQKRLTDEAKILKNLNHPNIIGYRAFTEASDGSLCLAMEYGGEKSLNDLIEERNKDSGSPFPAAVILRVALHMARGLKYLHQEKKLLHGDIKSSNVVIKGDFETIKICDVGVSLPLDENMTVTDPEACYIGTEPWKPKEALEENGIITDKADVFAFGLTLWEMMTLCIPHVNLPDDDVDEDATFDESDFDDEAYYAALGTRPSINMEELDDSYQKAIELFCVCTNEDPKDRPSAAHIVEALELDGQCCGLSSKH
UniProt Q9JHG6: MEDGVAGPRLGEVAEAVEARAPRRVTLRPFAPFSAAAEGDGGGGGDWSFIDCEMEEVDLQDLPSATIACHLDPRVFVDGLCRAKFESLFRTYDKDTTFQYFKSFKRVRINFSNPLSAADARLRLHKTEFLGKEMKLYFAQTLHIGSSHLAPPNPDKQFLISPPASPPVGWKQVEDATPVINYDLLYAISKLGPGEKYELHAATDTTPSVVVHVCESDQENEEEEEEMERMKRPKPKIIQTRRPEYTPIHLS
UniProt Q9JLJ4: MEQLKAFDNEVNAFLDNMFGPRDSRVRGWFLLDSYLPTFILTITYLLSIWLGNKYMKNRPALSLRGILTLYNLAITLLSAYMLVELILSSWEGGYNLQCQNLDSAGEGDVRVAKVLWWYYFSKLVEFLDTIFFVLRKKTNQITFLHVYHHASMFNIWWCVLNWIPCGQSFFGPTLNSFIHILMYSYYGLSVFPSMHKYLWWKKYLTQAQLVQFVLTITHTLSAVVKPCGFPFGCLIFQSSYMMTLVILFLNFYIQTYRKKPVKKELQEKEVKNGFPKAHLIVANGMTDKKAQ
UniProt Q9JKL4: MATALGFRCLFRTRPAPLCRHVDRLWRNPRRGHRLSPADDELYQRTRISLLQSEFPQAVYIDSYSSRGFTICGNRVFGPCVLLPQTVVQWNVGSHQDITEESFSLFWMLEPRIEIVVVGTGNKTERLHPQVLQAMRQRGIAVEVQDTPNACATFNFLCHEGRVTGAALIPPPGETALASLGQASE
UniProt Q9JMG7: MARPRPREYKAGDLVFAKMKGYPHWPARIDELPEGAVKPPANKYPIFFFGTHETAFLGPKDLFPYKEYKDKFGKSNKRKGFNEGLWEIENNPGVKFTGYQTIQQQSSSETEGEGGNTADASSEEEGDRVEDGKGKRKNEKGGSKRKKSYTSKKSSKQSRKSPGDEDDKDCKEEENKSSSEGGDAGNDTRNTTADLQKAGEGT
UniProt Q9QUG9: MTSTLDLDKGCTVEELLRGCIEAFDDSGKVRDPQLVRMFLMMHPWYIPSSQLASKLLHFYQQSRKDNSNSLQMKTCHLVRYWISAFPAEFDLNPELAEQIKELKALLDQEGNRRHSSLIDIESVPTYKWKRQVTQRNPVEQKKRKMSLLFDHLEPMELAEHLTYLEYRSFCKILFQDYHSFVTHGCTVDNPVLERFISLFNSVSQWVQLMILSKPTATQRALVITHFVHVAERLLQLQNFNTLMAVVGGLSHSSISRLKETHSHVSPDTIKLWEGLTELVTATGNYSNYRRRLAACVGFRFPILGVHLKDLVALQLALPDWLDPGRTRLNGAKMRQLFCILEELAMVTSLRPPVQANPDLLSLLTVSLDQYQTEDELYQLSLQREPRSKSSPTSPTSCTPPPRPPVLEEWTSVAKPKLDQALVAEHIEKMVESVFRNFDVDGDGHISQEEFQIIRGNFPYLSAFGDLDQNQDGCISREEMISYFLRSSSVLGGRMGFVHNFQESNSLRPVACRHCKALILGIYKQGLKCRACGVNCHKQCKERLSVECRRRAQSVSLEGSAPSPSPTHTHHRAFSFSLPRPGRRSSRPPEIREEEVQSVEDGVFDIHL
UniProt Q9JM05: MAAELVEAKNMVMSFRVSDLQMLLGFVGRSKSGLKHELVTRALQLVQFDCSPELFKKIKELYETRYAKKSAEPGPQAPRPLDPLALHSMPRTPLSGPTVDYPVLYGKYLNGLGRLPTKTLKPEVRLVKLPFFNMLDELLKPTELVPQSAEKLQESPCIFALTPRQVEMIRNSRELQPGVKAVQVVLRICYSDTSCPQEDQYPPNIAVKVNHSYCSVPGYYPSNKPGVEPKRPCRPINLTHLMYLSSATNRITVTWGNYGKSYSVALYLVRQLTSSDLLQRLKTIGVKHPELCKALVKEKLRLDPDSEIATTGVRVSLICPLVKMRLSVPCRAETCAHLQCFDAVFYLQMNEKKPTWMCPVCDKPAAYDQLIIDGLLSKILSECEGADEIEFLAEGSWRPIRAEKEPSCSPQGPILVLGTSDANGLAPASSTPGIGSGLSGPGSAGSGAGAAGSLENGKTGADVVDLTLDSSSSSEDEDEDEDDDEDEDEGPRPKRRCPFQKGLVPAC
UniProt Q9JJA2: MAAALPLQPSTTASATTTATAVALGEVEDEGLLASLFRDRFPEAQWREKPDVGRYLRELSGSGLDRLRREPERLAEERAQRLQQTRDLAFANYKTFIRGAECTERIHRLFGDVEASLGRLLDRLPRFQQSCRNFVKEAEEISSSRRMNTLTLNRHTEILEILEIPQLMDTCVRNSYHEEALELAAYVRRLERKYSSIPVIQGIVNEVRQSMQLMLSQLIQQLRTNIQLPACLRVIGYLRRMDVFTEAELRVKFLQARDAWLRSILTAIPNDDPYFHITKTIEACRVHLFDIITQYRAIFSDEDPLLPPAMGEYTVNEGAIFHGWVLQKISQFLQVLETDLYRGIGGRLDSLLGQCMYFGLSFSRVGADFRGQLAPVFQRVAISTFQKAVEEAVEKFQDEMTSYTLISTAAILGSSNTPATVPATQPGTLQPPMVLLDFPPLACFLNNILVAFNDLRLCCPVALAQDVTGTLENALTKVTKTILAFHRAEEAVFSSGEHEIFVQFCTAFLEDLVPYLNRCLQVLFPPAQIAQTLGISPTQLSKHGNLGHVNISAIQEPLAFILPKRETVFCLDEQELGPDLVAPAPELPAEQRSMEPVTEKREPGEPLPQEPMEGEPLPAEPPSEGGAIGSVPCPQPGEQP

compound: CN[C@@H]1C[C@H]2O[C@@](C)([C@@H]1OC)n1c3ccccc3c3c4c(c5c6ccccc6n2c5c31)C(=O)NC4 [staurosporine]; assay: log2 fold change of tryptic peptide abundance, ligand vs vehicle (limited proteolysis) (log2 ratio); higher = more trypsin-susceptible (destabilized); conditions: ligand concentration: 20 uM; sample: mouse liver crude lysate; replicate design: treated separately

Q: For “UniProt Q9JJN2 (peptide sequence: KKQAAATGR, peptide start residue: 535)”, which log2 fold change is on record?
A: -0.639

Q: With “UniProt Q9JJ78 (peptide sequence: KLLHGDIK, peptide start residue: 161)” as the target, how does the log2 fold change read?
A: 0.0155

Q: Which log2 fold change does the source give for “UniProt Q9JHG6 (peptide sequence: AKFESLFR, peptide start residue: 83)” here?
A: -0.0976

Q: Which log2 fold change does the source give for “UniProt Q9JLJ4 (peptide sequence: NGFPKAHLIVANGMTDKK, peptide start residue: 273)” here?
A: -0.0952

Q: “UniProt Q9JKL4 (peptide sequence: GFTICGNR, peptide start residue: 68)” was tested. Which log2 fold change did it give?
A: -0.366

Q: Which log2 fold change does the source give for “UniProt Q9JJI8 (peptide sequence: CSRYLYTLVITDKEK, peptide start residue: 38)” here?
A: 0.374

Q: “UniProt Q9JMG7 (peptide sequence: SSSEGGDAGNDTR, peptide start residue: 177)” was tested. Which log2 fold change did it give?
A: -0.261

Q: How did the log2 fold change turn out when “UniProt Q9JKX3 (peptide sequence: GPEHLGSCPGR, peptide start residue: 56)” was run?
A: 0.158

Q: “UniProt Q9QUG9 (peptide sequence: FPILGVHLK, peptide start residue: 301)” was tested. Which log2 fold change did it give?
A: 0.353

Q: Which log2 fold change does the source give for “UniProt Q9JM05 (peptide sequence: PLDPLALHSMPR, peptide start residue: 80)” here?
A: 0.612

Q: With “UniProt Q9JK83 (peptide sequence: VPGIFISR, peptide start residue: 189)” as the target, how does the log2 fold change read?
A: 0.25

Q: For “UniProt Q9JJA2 (peptide sequence: HGNLGHVNISAIQEPLAFILPKR, peptide start residue: 543)”, which log2 fold change is on record?
A: -1.05
